Data published in patent publication US10653742B2, “Anti-inflammatory use of liquid phytocomplexes from olive” (FATTORIA LA VIALLA DI GIANNI, ANTONIO E BANDINO LO …, priority 2013, dated 2020).
At least one structure is not confirmed: it was looked up by name or label, or the drawing left a doubt.

Experiments:
[1] = test system: U937 cells (a human myelomonocytic line); details: hydroxytyrosol on its own; cited from earlier work
[2] = test system: PC12 cells (a pheochromocytoma cell line); details: hydroxytyrosol on its own; cited from earlier work
[3] = test system: HL60R (multi-drug resistant derivative of HL60); details: cited from earlier work
[4] = test system: HUVE cells; experiment: Migration (chemotaxis) assay, Boyden chambers, collagen filters; assay type: cell-based, human; details: FIG. 5B
[5] = test system: HUVE cells; experiment: Apoptosis by annexin V and 7-AAD cytofluorimetry; assay type: cell-based, human; details: dilutions 1:2500-1:250, 24 and 48 h; FIG. 3
[6] = test system: HUVE cells; experiment: Morphogenesis assay in matrigel (tubular structures); assay type: cell-based, human; details: 1:500 and 1:250 dilutions, 24 h pre-treatment, 6 h incubation; dose-dependent; FIG. 4
[7] = test system: HUVE cells; experiment: Oxidative stress (DCFH-DA), samples added after treatment with H2O2; assay type: cell-based, human; details: cells treated with 250 μM H2O2 first, then dilutions 1:2500-1:250; FIG. 7
[8] = test system: breast tumor; details: induced neoplasias; cited from earlier work
[9] = test system: c57/BL6 mice; experiment: Matrigel sponge assay in vivo (blood vessel formation); design: species or system mouse; details: matrigel + VTH, 1:500 dilution, day 4; FIG. 9B
[10] = test system: HL60 (human promyelocytic leukemia line); details: cited from earlier work
[11] = test system: HUVE cells; experiment: Oxidative stress (DCFH-DA), samples added before treatment with H2O2; assay type: cell-based, human; details: 30 min pre-treatment with dilutions 1:2500-1:250, then H2O2; FIG. 8
[12] = test system: C2C12 cells (a mouse myoblast line); details: hydroxytyrosol on its own; cited from earlier work
[13] = test system: HUVE cells; experiment: Invasion (chemoinvasion) assay, Boyden chambers, matrigel-coated filters; assay type: cell-based, human; details: 1:500 and 1:250 dilutions, compared to medium with ethanol (p-value=0.0016 and 0.0159); FIG. 6B
[14] = test system: colorectal tumor cell lines, metastatic breast tumors and ER-negative cell lines; details: administered on its own; cited from earlier work

SMILES	effect on apoptosis of U937 cells [1]	effect against PC12 cells [2]	chemopreventive activity, HL60R [3]	migratory capacity of the endothelial cells ([4]; 1:250 dilution, compared to medium with ethanol, p-value=0.0302)	migratory capacity of the endothelial cells ([4]; at higher dilutions (than 1:250))	apoptosis / cellular necrosis of HUVE cells [5]	formation of stable tubular structures by the endothelial cells [6]	protective (antioxidant) effect, % of DCFH-DA+ cells [7]	breast tumor proliferation in vivo [8]	staining of the explanted matrigel pellets (macroscopic) [9]	chemopreventive activity, HL60 [10]	protective (antioxidant) effect, production of ROS, % of DCFH-DA+ cells [11]	effect on apoptosis of C2C12 cells [12]	invasive capacity of the endothelial cells [13]	anti-tumor potential [14]
OCCc1ccc(O)c(O)c1 [Hydroxytyrosol]	anti-apoptotic	cytoprotective effect	chemopreventive agent	reduces the migratory capacity	increase in migratory capacity	does not increase cellular necrosis	capable of interfering with the formation of structures stable tubular structures	exerts an antioxidant effect	inhibits breast tumor proliferation in vivo	greater than that of the positive control	chemopreventive agent	no significant antioxidant effect	anti-apoptotic	reduces the invasive capacity	–
C/C=C1/[C@H](O[C@@H]2O[C@H](CO)[C@@H](O)[C@H](O)[C@H]2O)OC=C(C(=O)OC)[C@H]1CC(=O)OCCc1ccc(O)c(O)c1 [oleuropein]	–	–	–	–	–	–	–	–	–	–	–	–	–	–	anti-tumor potential
